The whole screen tested about 320,000 compounds, of which about 2,100 (0.66%) were called active. The shares of active, inactive and inconclusive entries below differ from those in the screen. Calls follow the shape of the dose curve; as a rule, active = well fitted inhibition curve with a large enough effect in the signal ratio, with a control signal flat (not every such curve was filed as active); inconclusive = small, poorly fitted or top-dose-only effect, or effect the other way, or a change in a side signal; inactive = flat fitted curve, though single readings scatter; the % refers to the signal ratio. Where the call is inconclusive, the potency comes from a doubtful curve fit.
Experiment: qHTS Assay for Lipid Storage Modulators in Drosophila S3 Cells
Settings: BODIPY lipid droplet fluorescence, 18-24 h, cells fed with added oleic acid; lipid storage change, negative = inhibition: at 46.1 µM (top of the series) unless noted
Outline: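 Laser-scanning cytometry quantifies lipid droplet accumulation (500–530 nm total intensity; droplet/cell object ratio) in oleic acid-fed (400 uM added) Drosophila S3 cells treated with a concentration series. 20 uM Triacsin C defined 100% inhibition.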
With `CCN(c1ccccc1)S(=O)(=O)c1ccc(C(=O)N(CCN(C)C)c2nc3c(F)cc(F)cc3s2)cc1` the lipid storage change, negative = inhibition was inconclusive: -5.26%.
In the case of `CCCC(=O)Nc1ccc2nn(-c3ccc(OC)cc3)nc2c1`, the lipid storage change, negative = inhibition is reported as inconclusive: -21%.
With `CCOc1ccc(CCNC(=O)c2cc3c(s2)CS(=O)(=O)C3)cc1OCC` the lipid storage change, negative = inhibition was inconclusive: 65.9%.
In the case of `CCCCc1nc2cc(C(=O)N3CCCC3)ccc2o1`, the Potency is reported as inconclusive: 9.2 µM [falling, single point].
In the case of `COc1cc([N+](=O)[O-])ccc1NC(=S)NNC(=O)CCC(=O)Nc1ccccc1Cl`, the Potency is reported as inconclusive: 0.164 µM [activator, full curve, poor fit].
With `CCCc1cc(=O)oc2c(C)c(OCC(=O)N3CCC(C(=O)O)CC3)ccc12` the lipid storage change, negative = inhibition was inconclusive: 7.74%.
For `Clc1ccc(C[n+]2csc3ccccc32)cc1`, the lipid storage change, negative = inhibition was inconclusive: 5.74%.
In the case of `COc1cccc(CN2CCNC(=O)C2CC(=O)N2CCCCO2)c1OC` (stereo not given), the Potency is reported as inconclusive: 0.731 µM [falling, single point].
In the case of `O=C(O)c1c(-n2cccc2)sc2c1CCCC2`, the “lipid storage change, negative = inhibition” value is reported as inactive: 11.6%.
For `Cc1sc2nc(CSc3nnc(Cc4cccs4)n3C3CCCCC3)[nH]c(=O)c2c1C`, the lipid storage change, negative = inhibition was inconclusive: 56.7%.
For `CCCC(=O)c1c[nH]c(C(=O)N2CCOCC2)c1`, the lipid storage change, negative = inhibition was inconclusive: 0.0193%.
With `COc1cccc(NC(=S)/C(=C(\[O-])c2ccc(OC(F)F)cc2)[n+]2ccccc2)c1` the lipid storage change, negative = inhibition was inconclusive: -4.48%.
With `COC(=O)C1=C(C)N=C2SC(C)C(=O)N2C1c1cccs1` (stereo not given) the lipid storage change, negative = inhibition was inconclusive: 15.1%.
With `CC1(C)Cc2nc(N3CCOCC3)c(C#N)cc2CO1` the Potency was inconclusive: 0.13 µM [falling, full curve, poor fit].
In the case of `Cc1cc(OCc2nn[nH]n2)c2c(-c3ccccc3)cc(=O)oc2c1`, the lipid storage change, negative = inhibition is reported as inconclusive: 16.1% [at 9.22 µM].
In the case of `Cc1ccc(C(=O)NC(C(=O)OCc2cn3cc(Cl)ccc3n2)C(C)C)cc1` (stereo not given), the Potency is reported as active: 5.17 µM.
With `O=C(CC(NCc1ccccn1)C(=O)O)Nc1ccccc1Cl` (stereo not given) the lipid storage change, negative = inhibition was inconclusive: -69%.
In the case of `S=C(NCCN1CCOCC1)NC1CCCCC1`, the lipid storage change, negative = inhibition is reported as inconclusive: -7.3%.
In the case of `CCCNC(=O)Nc1cc(OC)c(OC)cc1Cc1nccc2cc(OC)c(OC)cc12`, the Potency is reported as inconclusive: 14.6 µM [activator, partial curve].
For `CCN(CC)c1ccc(-c2nc3cnccc3n2C)cc1`, the lipid storage change, negative = inhibition was inconclusive: 13.9%.
With `Cc1ccc(Oc2nnc(-c3cccs3)c3ccccc23)cc1C` the lipid storage change, negative = inhibition was inconclusive: -10.6%.
With `Cn1cccc1/C=N/NC(=O)CNc1ccc2ccccc2c1` the Potency was inconclusive: 2.31 µM [rising, single point].
For `Cc1nnc2ccc(-c3cccc(NC(=O)c4ccc(Cl)nc4)c3)nn12`, the lipid storage change, negative = inhibition was inconclusive: -10.2%.
With `CCCN(CC(=O)Nc1ccccc1C)CC(=O)Nc1ccc(Br)cc1F` the lipid storage change, negative = inhibition was inconclusive: 87.9%.
In the case of `OC(CNc1nc(C(F)(F)F)nc2ccccc12)c1ccccc1` (stereo not given), the lipid storage change, negative = inhibition is reported as inconclusive: -43.6%.
For `Cc1ccc(S(=O)(=O)CC(=O)Nc2nc3ccccc3s2)cc1`, the Potency was inconclusive: 29.1 µM [activator, single point].
For `O=C(N1CCN(c2ccccc2F)CC1)C12CC3CC(CC(C3)C1)C2`, the Potency was inconclusive: 6.51 µM [rising, single point].
With `CCc1ccc(N(CC(=O)NCC2CCCO2)C(=O)CCC(=O)Nc2nccs2)cc1` (stereo not given) the lipid storage change, negative = inhibition was inconclusive: 41.1%.
With `CCOC(=O)C(CC(=O)O)=C(c1ccccc1)c1ccccc1` the lipid storage change, negative = inhibition was inconclusive: 19%.
For `Cn1c(=O)c(C(=O)Nc2cnccn2)c(O)c2ccccc21`, the lipid storage change, negative = inhibition was inconclusive: -6.68%.
In the case of `CCCN(CC(=O)Nc1ccccc1OC)C(=O)c1ccc(=O)[nH]c1`, the lipid storage change, negative = inhibition is reported as inconclusive: 369%.
In the case of `O=C(c1ccccc1Br)N1CCCC(c2nc(-c3cccs3)no2)C1` (stereo not given), the “outcome” value is reported as “inactive [at 46.1 µM]”.
In the case of `Cc1nc(-c2ccccc2)sc1C1(C)CC(c2c(Cl)cccc2Cl)=NO1` (stereo not given), the lipid storage change, negative = inhibition is reported as inconclusive: 34.1%.
For `O=C(CSc1nnc(-c2cccc(S(=O)(=O)N3CCOCC3)c2)n1C1CCCCCC1)NCc1ccccc1`, the lipid storage change, negative = inhibition was inconclusive: 0.719%.
With `O/N=C(\c1ccc(Cl)cc1Cl)c1ncc(C(F)(F)F)cc1Cl` the Potency was inconclusive: 16.4 µM [cytotoxic, partial curve].
For `O=C(NC(Cc1c[nH]c2ccccc12)C(=O)NCc1ccc(F)cc1)OCc1ccccc1` (stereo not given), the Potency was inconclusive: 5.8 µM [rising, full curve, poor fit].
For `CN1C(C(=O)NCc2ccc(OC(F)(F)F)cc2)CC2Cn3c(nc4ccccc43)C21` (stereo not given), the Potency was inconclusive: 13 µM [activator, single point].
In the case of `COc1cccc(-c2nc3ccccc3s2)c1`, the lipid storage change, negative = inhibition is reported as inconclusive: 1.56%.
With `CCCCOC(=O)c1ccc(NC(=O)C(=O)NCCN(CC)CC)cc1` the lipid storage change, negative = inhibition was inconclusive: -0.835%.
In the case of `CN(C)c1ccc(CN(C(=O)COc2ccc(Br)cc2)C2CCS(=O)(=O)C2)cc1` (stereo not given), the Potency is reported as inconclusive: 0.58 µM [activator, full curve].

— PubChem BioAssay AID2685 (National Center for Advancing Translational Sciences (NCATS), 2010)
% is scaled to controls: 0 for no effect and ±100 for the full control effect; potency is read from the fitted curve at half-maximal effect.
